Results from US20230295331A1.

Columns and labels:
Assay in all cases: condition: dilution 10^2 (least diluted; no concentration given); ELISA, dilution series of antibody 7A8D5 on control protein
GPR63 = molecular target: GPR63
TOX = molecular target: TOX
ATP6AP1 = molecular target: ATP6AP1
ACAA1 = molecular target: ACAA1
CD45R = molecular target: CD45R
ADRB2 = molecular target: ADRB2
CD274 = molecular target: CD274

binding (GPR63): no binding
binding (ATP6AP1): no binding
binding (ACAA1): no binding
binding (CD45R): no binding
binding (ADRB2): no binding
binding (CD274): no binding
B1: mouse monoclonal anti-human CS1 antibody, clone 7A8D5 (antibody, V domains shown)
VH: VQLQQSGPEVVRPGVSVKISCKGSGYTFTDYAIHWVKQSHAKSLEWIGVINTYNGNTNYNQKFKGKATMTVDKSSSTAYMELARLTSEDSAIYYCTRTGYYYGPSHYFDYWGQGTTLTVSS
VL: DIVLTQSPASLTVSLGQRATMSCRASKSVSTSGYSYVHWYQQKPGQPPKLLIYLASNLESGVPARFSASGSGTDFTLNIHPVEEEDAATYYCQHSRELPWTFGGGTKLEIKR
binding (TOX): no binding

Results are given in words; binding and its absence hold for the method and conditions named.
